The results in this text go back to patent US20060210977.

For at least one entry, the source does not settle the construct or the ends of the probe. Tags and fusion partners may be left off the protein sequences shown.

The series deals with T1, Leu3p DNA binding domain (Saccharomyces cerevisiae) (UniProt P08638).
T1 sequence (looked up): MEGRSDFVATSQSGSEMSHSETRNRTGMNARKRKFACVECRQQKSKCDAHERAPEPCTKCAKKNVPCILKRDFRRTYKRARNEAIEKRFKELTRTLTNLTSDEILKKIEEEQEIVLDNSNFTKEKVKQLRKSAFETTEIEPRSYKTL
Kind of series: binding assay. As to conditions: CITED Hellauer et al. 1996; binds in vitro; purified recombinant protein.

Consider “TCCGGCCGGAACCGGCTTT (double strand) [Leu3p target DNA]”, for which the binding result was “binds”.
